From the supplement of paper PMC4604168 (melanoma cell lines)
This is one part of the list. Single values are uncertain, as repeats are few or missing.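 The apoptosis fraction was the count of cleaved-PARP antibody-stained nuclei relative to all DNA-stained nuclei, imaged in 1,536-well plates. Screening doses were set so most cells survived, and baseline and induced cleaved-PARP levels vary greatly across cell lines.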

Assays:
Experiment in all cases: cleaved PARP positive nuclei fraction relative to DMSO control; melanoma cells; higher = more apoptosis
Conditions in all cases: library dose: low library concentration; 72 h
WM115 = tested on: WM115
WM1716 = tested on: WM1716
WM1745 = tested on: WM1745
WM3526 = tested on: WM3526
WM3619 = tested on: WM3619
WM451Lu = tested on: WM451Lu

Compound | cleaved PARP positive nuclei fraction (WM115) [%] | cleaved PARP positive nuclei fraction (WM1716) [%] | cleaved PARP positive nuclei fraction (WM1745) [%] | cleaved PARP positive nuclei fraction (WM3526) [%] | cleaved PARP positive nuclei fraction (WM3619) [%] | cleaved PARP positive nuclei fraction (WM451Lu) [%]
C#Cc1cccc(Nc2ncnc3cc(OCCOC)c(OCCOC)cc23)c1 [erlotinib] + CN(C)S(=O)(=O)c1ccc2c(c1)/C(=C/c1cc3c([nH]1)CCCC3)C(=O)N2 [SU6656] (first compound 0.8 µM, partner dose 0.4 µM) | 204 | 85.9 | 99.1 | 82.2 | 109 | 300
OCCn1cc(-c2cnc3nnn(Cc4ccc5ncccc5c4)c3n2)cn1 + COc1cc2c(Oc3ccc4[nH]c(C)cc4c3F)ncnc2cc1OCCCN1CCCC1 [cediranib] (first compound 1 µM, partner dose 0.4 µM) | 127 | 152 | 106 | 36.2 | 97.4 | 58.2
COCC[n+]1c2c(n(Cc3cnccn3)c1C)C(=O)c1ccccc1C2=O + CN(C)S(=O)(=O)c1ccc2c(c1)/C(=C/c1cc3c([nH]1)CCCC3)C(=O)N2 [SU6656] (first compound 0.0004 µM, partner dose 0.4 µM) | 158 | 191 | 97.7 | 52.6 | 96.9 | 320
O=C(Nc1cccc(Cl)c1)Nc1ncc(CCNc2ncnc3ccsc23)s1 + c1cc(-c2cnn3cc(-c4ccc(OCCN5CCCCC5)cc4)cnc23)ccn1 [Dorsomorphin] (first compound 0.0008 µM, partner dose 0.4 µM) | 40.1 | 80.3 | 107 | 133 | 84.3 | 38.9
CC1(C)NC(=O)N(c2ccc([N+](=O)[O-])c(C(F)(F)F)c2)C1=O [nilutamide] + Cc1cc([N+](=O)[O-])ccc1NS(=O)(=O)c1cc(Cl)ccc1Cl [FH535] (first compound 1 µM, partner dose 1 µM) | 164 | 183 | 108 | 85.7 | 124 | 168
Clc1ccc(Nc2nnc(Cc3ccncc3)c3ccccc23)cc1 [vatalanib] + C[C@@H]1CCN(C(=O)CC#N)C[C@@H]1N(C)c1ncnc2[nH]ccc12 [CP690550] (first compound 2 µM, partner dose 1 µM) | 89.9 | 85.8 | 103 | 54.3 | 114 | 134
COCC[n+]1c2c(n(Cc3cnccn3)c1C)C(=O)c1ccccc1C2=O + Oc1cc(-c2nc(-c3ccccc3)[nH]c2-c2ccncc2)ccc1Cl [L779450] (first compound 0.0004 µM, partner dose 0.2 µM) | 153 | 122 | 109 | 259 | 142 | 86.8
NC(=O)Nc1cc(-c2cccc(F)c2)sc1C(=O)N[C@H]1CCCNC1 + COc1ccc(COc2ccc(Cc3cnc(N)nc3N)cc2OC)cc1 [GW2580] (first compound 0.02 µM, partner dose 1 µM) | 72 | 123 | 110 | 86.3 | 155 | 129
Cn1cncc1[C@@](N)(c1ccc(Cl)cc1)c1ccc2c(c1)c(-c1cccc(Cl)c1)cc(=O)n2C [tipifarnib] + COc1cc2c(Oc3ccc4[nH]c(C)cc4c3F)ncnc2cc1OCCCN1CCCC1 [cediranib] (first compound 0.01 µM, partner dose 0.4 µM) | 73.7 | 137 | 98.5 | 59.8 | 77.4 | 144
C=CCNC1=C2C[C@@H](C)C[C@H](OC)[C@H](O)[C@@H](C)/C=C(\C)[C@H](OC(N)=O)[C@@H](OC)/C=C\C=C(/C)C(=O)NC(=CC1=O)C2=O [Tanespimycin] + C[C@@H]1CCN(C(=O)CC#N)C[C@@H]1N(C)c1ncnc2[nH]ccc12 [CP690550] (first compound 0.002 µM, partner dose 1 µM) | 70.1 | 48.7 | 115 | 39.7 | 101 | 146
Cc1nc(Nc2ncc(C(=O)Nc3c(C)cccc3Cl)s2)cc(N2CCN(CCO)CC2)n1 [dasatanib] + N#Cc1c(O)c2c(-c3ccc(-c4ccccc4O)cc3)csc2[nH]c1=O [A769662] (first compound 0.004 µM, partner dose 2 µM) | 214 | 110 | 189 | 67.5 | 119 | 48.1
Cc1ccc(NC(=O)c2cccc(N(C)C)c2)cc1NC(=O)c1ccc(O)cc1 + Cn1cncc1[C@@](N)(c1ccc(Cl)cc1)c1ccc2c(c1)c(-c1cccc(Cl)c1)cc(=O)n2C [tipifarnib] (first compound 2 µM, partner dose 0.01 µM) | 183 | 122 | 106 | 67.5 | 106 | 29.1
C=CCn1c(=O)c2cnc(Nc3ccc(N4CCN(C)CC4)cc3)nc2n1-c1cccc(C(C)(C)O)n1 + Cn1cncc1[C@@](N)(c1ccc(Cl)cc1)c1ccc2c(c1)c(-c1cccc(Cl)c1)cc(=O)n2C [tipifarnib] (first compound 0.02 µM, partner dose 0.01 µM) | 664 | 24.6 | 121 | 148 | 132 | 95.4
Cn1nnc2c(C(N)=O)ncn2c1=O [temozolomide] + COc1ccc2c(c1)CCC1C2CCC2(C)C(NCCCCCCN3C(=O)C=CC3=O)CCC12 [U73122] (first compound 2 µM, partner dose 0.4 µM) | 204 | 192 | 126 | 37.7 | 103 | 60.4
O=C(CCCCCCC(=O)Nc1ccccc1)NO [vorinostat] + O=C(Nc1ccccc1)c1cc([N+](=O)[O-])ccc1Cl [GW9662] (first compound 0.08 µM, partner dose 2 µM) | 95.7 | 57.2 | 96.3 | 134 | 95.4 | 64.3
CC(=O)c1c(C)c2cnc(Nc3ccc(N4CCNCC4)cn3)nc2n(C2CCCC2)c1=O [palbociclib] + COc1cc(N2CCC(N3CCN(C)CC3)CC2)ccc1Nc1ncc(Cl)c(Nc2ccccc2S(=O)(=O)C(C)C)n1 [NVP-TAE684] (first compound 0.04 µM, partner dose 0.08 µM) | 163 | 182 | 122 | 143 | 149 | 112
OCCn1cc(-c2cnc3nnn(Cc4ccc5ncccc5c4)c3n2)cn1 + CCCCCCCCCCCC1=C(O)C(=O)C=C(O)C1=O [Embelin] (first compound 1 µM, partner dose 1.2 µM) | 147 | 110 | 97.3 | 40.7 | 68.7 | 284
C=CCNC1=C2C[C@@H](C)C[C@H](OC)[C@H](O)[C@@H](C)/C=C(\C)[C@H](OC(N)=O)[C@@H](OC)/C=C\C=C(/C)C(=O)NC(=CC1=O)C2=O [Tanespimycin] + NC(=O)Nc1cc(-c2cccc(F)c2)sc1C(=O)N[C@H]1CCCNC1 [AZD7762] (first compound 0.002 µM, partner dose 0.02 µM) | 240 | 142 | 117 | 174 | 228 | 252
Cc1nc(Nc2ncc(C(=O)Nc3c(C)cccc3Cl)s2)cc(N2CCN(CCO)CC2)n1 [dasatanib] + COc1ccc(COc2ccc(Cc3cnc(N)nc3N)cc2OC)cc1 [GW2580] (first compound 0.004 µM, partner dose 1 µM) | 114 | 169 | 163 | 61.8 | 82.7 | 98.8
CC(=O)c1c(C)c2cnc(Nc3ccc(N4CCNCC4)cn3)nc2n(C2CCCC2)c1=O [palbociclib] + O=c1cc(-c2cccc3c2Sc2ccccc2S3)oc(N2CCOCC2)c1 [KU55933] (first compound 0.04 µM, partner dose 1 µM) | 81.9 | 44.5 | 113 | 196 | 135 | 204
Nc1cccc2c1CN(C1CCC(=O)NC1=O)C2=O (stereo unspecified) [lenalidomide] + CC(C)CCN1c2nc(Nc3cc(F)c(O)c(F)c3)ncc2N(C)C(=O)C1C [BID1870] (first compound 1 µM, partner dose 0.2 µM) | 140 | 110 | 94 | 86.3 | 74.4 | 60.1
COc1cc(Nc2ncc(F)c(Nc3ccc4c(n3)NC(=O)C(C)(C)O4)n2)cc(OC)c1OC [Tamatinib] + O=S(=O)(c1ccccc1)N(CC(F)(F)F)c1ccc(C(O)(C(F)(F)F)C(F)(F)F)cc1 [T0901317] (first compound 0.4 µM, partner dose 1.4 µM) | 179 | 51.6 | 158 | 200 | 106 | 34.5
C#Cc1cccc(Nc2ncnc3cc(OCCOC)c(OCCOC)cc23)c1 [erlotinib] + C=CCn1c(=O)c2cnc(Nc3ccc(N4CCN(C)CC4)cc3)nc2n1-c1cccc(C(C)(C)O)n1 [MK1775] (first compound 0.8 µM, partner dose 0.02 µM) | 85.8 | 123 | 144 | 59 | 200 | 80.8
Nc1cccc2c1CN(C1CCC(=O)NC1=O)C2=O (stereo unspecified) [lenalidomide] + O=C(Nc1ccccc1)c1cc([N+](=O)[O-])ccc1Cl [GW9662] (first compound 1 µM, partner dose 2 µM) | 177 | 119 | 101 | 67.3 | 118 | 36.3
C#Cc1cccc(Nc2ncnc3cc(OCCOC)c(OCCOC)cc23)c1 [erlotinib] + C[C@]1(c2nc3c(C(N)=O)cccc3[nH]2)CCCN1 [Veliparib] (first compound 0.8 µM, partner dose 1.4 µM) | 86 | 24.2 | 111 | 59.9 | 89 | 48.8
Cc1nc(Nc2ncc(C(=O)Nc3c(C)cccc3Cl)s2)cc(N2CCN(CCO)CC2)n1 [dasatanib] + Cn1cc(/C=C2\C(=O)Nc3cccnc32)c2ccccc21 [GW441756] (first compound 0.004 µM, partner dose 0.4 µM) | 123 | 116 | 149 | 281 | 85.3 | 43.5

Full records from above.
C#Cc1cccc(Nc2ncnc3cc(OCCOC)c(OCCOC)cc23)c1 [erlotinib] + C=CCn1c(=O)c2cnc(Nc3ccc(N4CCN(C)CC4)cc3)nc2n1-c1cccc(C(C)(C)O)n1 [MK1775] (first compound 0.8 µM, partner dose 0.02 µM) is listed as cleaved PARP positive nuclei fraction (WM115) [%]: 85.8; cleaved PARP positive nuclei fraction (WM1716) [%]: 123; cleaved PARP positive nuclei fraction (WM1745) [%]: 144; cleaved PARP positive nuclei fraction (WM3526) [%]: 59; cleaved PARP positive nuclei fraction (WM3619) [%]: 200; cleaved PARP positive nuclei fraction (WM451Lu) [%]: 80.8
Cn1cncc1[C@@](N)(c1ccc(Cl)cc1)c1ccc2c(c1)c(-c1cccc(Cl)c1)cc(=O)n2C [tipifarnib] + COc1cc2c(Oc3ccc4[nH]c(C)cc4c3F)ncnc2cc1OCCCN1CCCC1 [cediranib] (first compound 0.01 µM, partner dose 0.4 µM) is listed as cleaved PARP positive nuclei fraction (WM115) [%]: 73.7; cleaved PARP positive nuclei fraction (WM1716) [%]: 137; cleaved PARP positive nuclei fraction (WM1745) [%]: 98.5; cleaved PARP positive nuclei fraction (WM3526) [%]: 59.8; cleaved PARP positive nuclei fraction (WM3619) [%]: 77.4; cleaved PARP positive nuclei fraction (WM451Lu) [%]: 144
